Measured values taken from PMC12859043.
These are yes or no findings as the source states them, for the method shown. Binding seen in cells or lysates may run through a third protein. A yes stands for co-enrichment or nearness to the bait. Other partners may have been found. Tags and fused reporters may be left off the sequences shown.

How the values were obtained:
Assay in all cases: proximity labelling; miniTurboID-V5-PRICKLE1-3 baits in stable HEK T-REx 293 TetON cells; doxycycline 1 μg/mL overnight, biotin 50 μM 6 h; streptavidin beads, DIA LC-MS/MS; control miniTurboID-V5 alone; five biological replicates
[1] = target: T1, miniTurboID-V5-PRICKLE1 (human) (UniProt Q96MT3)
T1 sequence: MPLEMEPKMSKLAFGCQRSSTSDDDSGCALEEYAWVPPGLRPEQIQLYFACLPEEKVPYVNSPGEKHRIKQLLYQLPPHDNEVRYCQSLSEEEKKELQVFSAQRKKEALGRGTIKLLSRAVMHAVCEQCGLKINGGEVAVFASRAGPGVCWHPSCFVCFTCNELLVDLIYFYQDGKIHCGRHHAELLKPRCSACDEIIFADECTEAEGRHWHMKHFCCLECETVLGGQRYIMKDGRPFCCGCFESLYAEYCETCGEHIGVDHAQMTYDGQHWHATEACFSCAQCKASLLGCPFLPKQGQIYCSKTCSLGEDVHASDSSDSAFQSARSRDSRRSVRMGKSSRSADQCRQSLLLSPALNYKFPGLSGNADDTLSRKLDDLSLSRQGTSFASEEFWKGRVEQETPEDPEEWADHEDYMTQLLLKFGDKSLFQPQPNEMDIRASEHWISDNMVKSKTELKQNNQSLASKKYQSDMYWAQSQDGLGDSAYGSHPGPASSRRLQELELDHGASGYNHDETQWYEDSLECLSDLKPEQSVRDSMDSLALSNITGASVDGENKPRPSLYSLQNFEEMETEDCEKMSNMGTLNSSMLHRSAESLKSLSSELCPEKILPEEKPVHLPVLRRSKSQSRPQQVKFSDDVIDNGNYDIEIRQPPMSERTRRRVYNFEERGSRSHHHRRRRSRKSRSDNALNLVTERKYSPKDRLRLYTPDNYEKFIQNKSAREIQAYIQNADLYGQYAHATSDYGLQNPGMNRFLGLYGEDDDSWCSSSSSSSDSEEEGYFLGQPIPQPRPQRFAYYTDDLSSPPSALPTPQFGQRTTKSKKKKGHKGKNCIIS

[2] = target: T2, miniTurboID-V5-PRICKLE2 (human) (UniProt Q7Z3G6)
T2 sequence: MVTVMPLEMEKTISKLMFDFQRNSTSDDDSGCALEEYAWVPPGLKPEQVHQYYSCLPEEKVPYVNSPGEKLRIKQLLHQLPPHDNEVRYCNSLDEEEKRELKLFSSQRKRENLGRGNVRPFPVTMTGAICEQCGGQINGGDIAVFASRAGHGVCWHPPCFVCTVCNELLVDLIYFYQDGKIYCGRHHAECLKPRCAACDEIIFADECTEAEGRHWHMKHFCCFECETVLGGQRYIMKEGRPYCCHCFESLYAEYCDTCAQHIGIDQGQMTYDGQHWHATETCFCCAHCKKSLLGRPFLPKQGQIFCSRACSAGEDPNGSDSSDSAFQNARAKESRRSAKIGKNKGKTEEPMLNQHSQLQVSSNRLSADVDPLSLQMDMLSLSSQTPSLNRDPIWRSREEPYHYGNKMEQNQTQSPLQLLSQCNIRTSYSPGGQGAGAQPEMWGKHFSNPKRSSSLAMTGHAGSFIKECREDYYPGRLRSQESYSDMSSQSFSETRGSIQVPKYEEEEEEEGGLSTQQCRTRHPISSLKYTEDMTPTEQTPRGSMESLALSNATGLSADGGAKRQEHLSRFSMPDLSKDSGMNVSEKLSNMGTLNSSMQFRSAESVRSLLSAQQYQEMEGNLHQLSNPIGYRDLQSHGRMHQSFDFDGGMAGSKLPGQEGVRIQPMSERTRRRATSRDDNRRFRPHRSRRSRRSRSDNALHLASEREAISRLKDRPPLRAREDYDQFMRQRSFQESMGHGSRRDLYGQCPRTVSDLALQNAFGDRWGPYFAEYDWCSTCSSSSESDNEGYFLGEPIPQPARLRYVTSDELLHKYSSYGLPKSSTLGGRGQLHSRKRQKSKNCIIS

[3] = target: T3, miniTurboID-V5-PRICKLE3 (human) (UniProt O43900)
T3 sequence: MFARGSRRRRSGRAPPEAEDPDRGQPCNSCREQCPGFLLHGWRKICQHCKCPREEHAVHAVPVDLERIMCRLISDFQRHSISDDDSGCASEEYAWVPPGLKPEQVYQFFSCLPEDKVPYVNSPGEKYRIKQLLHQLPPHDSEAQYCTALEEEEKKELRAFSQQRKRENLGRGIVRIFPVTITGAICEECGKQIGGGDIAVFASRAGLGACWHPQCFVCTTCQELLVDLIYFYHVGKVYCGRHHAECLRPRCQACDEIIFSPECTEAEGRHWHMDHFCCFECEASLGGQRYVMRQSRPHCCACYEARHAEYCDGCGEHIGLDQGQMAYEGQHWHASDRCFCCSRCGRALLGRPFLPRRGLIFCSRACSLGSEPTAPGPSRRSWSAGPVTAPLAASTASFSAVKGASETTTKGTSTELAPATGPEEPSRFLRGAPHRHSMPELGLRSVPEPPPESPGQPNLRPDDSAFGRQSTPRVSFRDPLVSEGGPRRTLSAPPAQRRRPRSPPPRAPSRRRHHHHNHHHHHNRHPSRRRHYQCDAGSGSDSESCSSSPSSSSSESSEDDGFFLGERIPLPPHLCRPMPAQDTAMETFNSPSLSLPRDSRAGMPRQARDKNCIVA

Measured: binding

B1: VANGL1 (endogenous) (protein, UniProt Q8TAA9 1-524)
chain: MDTESTYSGYSYYSSHSKKSHRQGERTRERHKSPRNKDGRGSEKSVTIQPPTGEPLLGNDSTRTEEVQDDNWGETTTAITGTSEHSISQEDIARISKDMEDSVGLDCKRYLGLTVASFLGLLVFLTPIAFILLPPILWRDELEPCGTICEGLFISMAFKLLILLIGTWALFFRKRRADMPRVFVFRALLLVLIFLFVVSYWLFYGVRILDSRDRNYQGIVQYAVSLVDALLFIHYLAIVLLELRQLQPMFTLQVVRSTDGESRFYSLGHLSIQRAALVVLENYYKDFTIYNPNLLTASKFRAAKHMAGLKVYNVDGPSNNATGQSRAMIAAAARRRDSSHNELYYEEAEHERRVKKRKARLVVAVEEAFIHIQRLQAEEQQKAPGEVMDPREAAQAIFPSMARALQKYLRITRQQNYHSMESILQHLAFCITNGMTPKAFLERYLSAGPTLQYDKDRWLSTQWRLVSDEAVTNGLRDGIVFVLKCLDFSLVVNVKKIPFIILSEEFIDPKSHKFVLRLQSETSV
binds: all assays above
